No constants are given. Whether binding was seen depends on the method and setting. Some binding calls cover weakened binding; strength is not graded here.

By UniProt entry, the sequences of proteins in these tests, tags left out. Residues count along the entry.
UniProt P25942, residues 21-277: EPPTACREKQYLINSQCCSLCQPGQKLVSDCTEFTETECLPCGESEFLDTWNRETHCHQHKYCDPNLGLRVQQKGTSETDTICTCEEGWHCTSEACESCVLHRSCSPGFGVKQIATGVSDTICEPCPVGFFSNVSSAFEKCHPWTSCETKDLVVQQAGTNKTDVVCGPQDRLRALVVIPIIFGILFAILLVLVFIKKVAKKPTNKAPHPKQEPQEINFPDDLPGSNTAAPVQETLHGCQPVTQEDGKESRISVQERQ

Binding data for one molecule are collected here from JP2006342173A.

The target of this test is ヒトCD40 (human CD40 expressed on cells) (human) (UniProt P25942). Put plainly: screening by ELISA (human CD40 mouse FC) and FACS (Ramos cells). (In general: An ELISA detects its analyte on a solid surface through an enzyme-linked reagent.)

B1: F4-465抗体 (antibody, V domains shown)
VH: QVQLVQSGSELKKPGASVKVPCKASGYTFTSYAMNWVRQAPGQGLEWMGWINTNTGNPTYAQGFTGRFVFSLDTSVSTAYLQISSLKAEDTAVYYCAREVVPVAMRVTHYYYGMDVWGQGTTVTVSS
VL: SYELTQPPSVSVAPGQTASITCSGDKLGDNFTCWYQQKPGQSPVLVIFQDWKRRPGIPARFSGSKSGNTATLTISGTQAMDEADYYCQAWDISTVVFGGGT
On to B1, for which the binding entry is “binds”.
